Consider 20 targets from the supplement of paper PMC10849652.

Protein sequences, listed by entry. Tags and fused reporters are not part of them. Lines headed by an entry give the natural chain unless they say otherwise; changes in a name come on top.
UniProt Q13948: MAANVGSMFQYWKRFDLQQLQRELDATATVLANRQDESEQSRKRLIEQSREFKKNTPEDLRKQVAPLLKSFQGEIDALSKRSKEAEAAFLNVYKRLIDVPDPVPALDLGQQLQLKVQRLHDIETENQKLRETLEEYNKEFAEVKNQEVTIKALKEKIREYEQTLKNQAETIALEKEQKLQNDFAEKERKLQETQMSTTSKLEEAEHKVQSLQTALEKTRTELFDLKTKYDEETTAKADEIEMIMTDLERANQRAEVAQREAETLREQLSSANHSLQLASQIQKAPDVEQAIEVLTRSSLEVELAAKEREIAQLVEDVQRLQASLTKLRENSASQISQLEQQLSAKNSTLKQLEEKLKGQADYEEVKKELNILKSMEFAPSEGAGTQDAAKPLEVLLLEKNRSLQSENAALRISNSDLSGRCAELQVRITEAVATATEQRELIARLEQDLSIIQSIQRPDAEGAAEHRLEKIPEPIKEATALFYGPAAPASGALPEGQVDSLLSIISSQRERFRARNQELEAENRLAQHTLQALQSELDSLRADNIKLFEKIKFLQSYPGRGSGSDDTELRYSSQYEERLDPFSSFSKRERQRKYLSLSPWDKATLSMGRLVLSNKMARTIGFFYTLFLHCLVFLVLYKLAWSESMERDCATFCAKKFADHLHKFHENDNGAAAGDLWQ
UniProt Q9Y600: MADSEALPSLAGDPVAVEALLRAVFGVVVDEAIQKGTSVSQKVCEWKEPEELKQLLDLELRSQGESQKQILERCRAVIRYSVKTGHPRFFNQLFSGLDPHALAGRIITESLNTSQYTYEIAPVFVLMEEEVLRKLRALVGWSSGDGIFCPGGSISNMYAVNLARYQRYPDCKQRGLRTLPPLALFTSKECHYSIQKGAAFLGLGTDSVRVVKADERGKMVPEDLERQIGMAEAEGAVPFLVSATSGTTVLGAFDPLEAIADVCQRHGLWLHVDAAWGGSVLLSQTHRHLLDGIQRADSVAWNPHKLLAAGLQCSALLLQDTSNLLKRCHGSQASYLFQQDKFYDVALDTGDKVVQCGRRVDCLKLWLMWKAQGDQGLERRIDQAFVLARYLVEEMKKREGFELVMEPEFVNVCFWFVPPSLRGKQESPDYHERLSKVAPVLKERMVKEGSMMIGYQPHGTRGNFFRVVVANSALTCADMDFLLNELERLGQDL
UniProt Q9H175: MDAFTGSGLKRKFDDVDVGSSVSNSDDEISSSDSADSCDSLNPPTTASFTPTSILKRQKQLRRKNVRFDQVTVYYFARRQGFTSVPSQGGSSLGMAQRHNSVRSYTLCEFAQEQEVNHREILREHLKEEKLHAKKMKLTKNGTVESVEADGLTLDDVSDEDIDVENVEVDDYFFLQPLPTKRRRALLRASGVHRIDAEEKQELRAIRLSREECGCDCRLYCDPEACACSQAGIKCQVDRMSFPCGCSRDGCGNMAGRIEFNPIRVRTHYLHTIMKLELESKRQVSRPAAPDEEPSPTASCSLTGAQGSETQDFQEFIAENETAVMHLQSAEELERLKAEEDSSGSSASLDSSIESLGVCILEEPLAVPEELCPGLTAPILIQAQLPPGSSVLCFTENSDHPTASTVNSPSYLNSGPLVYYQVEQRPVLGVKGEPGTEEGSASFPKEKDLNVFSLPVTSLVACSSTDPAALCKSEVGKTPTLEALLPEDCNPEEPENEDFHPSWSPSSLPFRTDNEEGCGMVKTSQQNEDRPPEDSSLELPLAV
UniProt P08311: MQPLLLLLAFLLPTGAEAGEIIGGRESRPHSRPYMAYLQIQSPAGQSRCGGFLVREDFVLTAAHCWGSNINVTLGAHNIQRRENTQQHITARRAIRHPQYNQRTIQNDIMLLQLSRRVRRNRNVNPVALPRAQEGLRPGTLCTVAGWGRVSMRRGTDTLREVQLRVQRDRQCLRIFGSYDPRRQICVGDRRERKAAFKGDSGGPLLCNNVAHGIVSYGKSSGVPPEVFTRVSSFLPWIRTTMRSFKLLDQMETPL
UniProt O60931: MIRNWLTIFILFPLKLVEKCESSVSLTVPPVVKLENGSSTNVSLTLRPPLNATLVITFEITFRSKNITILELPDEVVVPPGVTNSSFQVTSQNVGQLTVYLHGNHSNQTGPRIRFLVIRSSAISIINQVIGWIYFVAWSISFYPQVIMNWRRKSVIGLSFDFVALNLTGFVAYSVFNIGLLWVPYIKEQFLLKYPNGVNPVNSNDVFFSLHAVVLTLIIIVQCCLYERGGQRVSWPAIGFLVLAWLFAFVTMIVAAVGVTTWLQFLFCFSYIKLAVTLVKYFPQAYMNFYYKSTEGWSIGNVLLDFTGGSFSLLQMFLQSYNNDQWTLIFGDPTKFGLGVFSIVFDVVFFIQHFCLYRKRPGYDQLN
UniProt P54108: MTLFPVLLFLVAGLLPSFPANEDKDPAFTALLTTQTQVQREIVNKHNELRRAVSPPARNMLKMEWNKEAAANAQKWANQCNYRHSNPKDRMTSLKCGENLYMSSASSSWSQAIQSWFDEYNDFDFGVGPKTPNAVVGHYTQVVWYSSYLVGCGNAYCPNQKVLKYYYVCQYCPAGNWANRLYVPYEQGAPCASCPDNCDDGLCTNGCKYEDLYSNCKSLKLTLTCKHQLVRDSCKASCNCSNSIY
UniProt P01037: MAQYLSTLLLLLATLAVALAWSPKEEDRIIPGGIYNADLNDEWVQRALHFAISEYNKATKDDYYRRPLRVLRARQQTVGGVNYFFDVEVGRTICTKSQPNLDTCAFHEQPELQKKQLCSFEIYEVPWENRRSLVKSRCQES
UniProt Q9GZU7: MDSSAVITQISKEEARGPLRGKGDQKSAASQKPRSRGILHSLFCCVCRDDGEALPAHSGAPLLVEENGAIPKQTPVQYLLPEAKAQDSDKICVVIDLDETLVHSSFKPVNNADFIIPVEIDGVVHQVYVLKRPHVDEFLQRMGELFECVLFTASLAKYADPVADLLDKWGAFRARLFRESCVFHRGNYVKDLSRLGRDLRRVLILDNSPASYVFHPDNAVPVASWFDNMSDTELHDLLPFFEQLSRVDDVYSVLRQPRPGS
UniProt Q16619: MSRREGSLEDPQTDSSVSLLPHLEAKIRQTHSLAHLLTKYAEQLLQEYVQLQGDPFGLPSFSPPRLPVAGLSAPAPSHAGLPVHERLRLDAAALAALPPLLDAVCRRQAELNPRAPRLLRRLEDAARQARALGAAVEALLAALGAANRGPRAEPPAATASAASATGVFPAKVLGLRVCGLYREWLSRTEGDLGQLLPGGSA
UniProt P48729: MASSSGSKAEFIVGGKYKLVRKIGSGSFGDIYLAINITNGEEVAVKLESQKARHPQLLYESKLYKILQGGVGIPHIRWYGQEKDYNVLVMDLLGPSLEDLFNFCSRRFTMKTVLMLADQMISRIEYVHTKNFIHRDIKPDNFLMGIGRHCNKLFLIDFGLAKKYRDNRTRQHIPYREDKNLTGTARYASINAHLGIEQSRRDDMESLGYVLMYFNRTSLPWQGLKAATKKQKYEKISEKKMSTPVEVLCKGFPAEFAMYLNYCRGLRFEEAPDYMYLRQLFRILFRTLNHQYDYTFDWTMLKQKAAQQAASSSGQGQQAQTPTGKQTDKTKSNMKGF
UniProt Q9UBX1: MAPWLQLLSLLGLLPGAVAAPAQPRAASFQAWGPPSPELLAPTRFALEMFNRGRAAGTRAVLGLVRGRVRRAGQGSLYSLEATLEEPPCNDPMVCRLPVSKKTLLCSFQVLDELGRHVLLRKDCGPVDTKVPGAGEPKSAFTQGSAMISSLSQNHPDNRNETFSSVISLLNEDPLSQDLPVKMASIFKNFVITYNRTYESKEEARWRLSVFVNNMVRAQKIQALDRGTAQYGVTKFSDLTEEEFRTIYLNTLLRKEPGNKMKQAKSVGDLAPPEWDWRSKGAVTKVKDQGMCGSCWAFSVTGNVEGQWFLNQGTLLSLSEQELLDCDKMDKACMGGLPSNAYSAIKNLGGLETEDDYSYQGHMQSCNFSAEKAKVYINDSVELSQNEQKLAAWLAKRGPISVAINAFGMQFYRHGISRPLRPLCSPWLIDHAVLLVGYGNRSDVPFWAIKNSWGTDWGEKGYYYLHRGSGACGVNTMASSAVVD
UniProt Q9Y6M4: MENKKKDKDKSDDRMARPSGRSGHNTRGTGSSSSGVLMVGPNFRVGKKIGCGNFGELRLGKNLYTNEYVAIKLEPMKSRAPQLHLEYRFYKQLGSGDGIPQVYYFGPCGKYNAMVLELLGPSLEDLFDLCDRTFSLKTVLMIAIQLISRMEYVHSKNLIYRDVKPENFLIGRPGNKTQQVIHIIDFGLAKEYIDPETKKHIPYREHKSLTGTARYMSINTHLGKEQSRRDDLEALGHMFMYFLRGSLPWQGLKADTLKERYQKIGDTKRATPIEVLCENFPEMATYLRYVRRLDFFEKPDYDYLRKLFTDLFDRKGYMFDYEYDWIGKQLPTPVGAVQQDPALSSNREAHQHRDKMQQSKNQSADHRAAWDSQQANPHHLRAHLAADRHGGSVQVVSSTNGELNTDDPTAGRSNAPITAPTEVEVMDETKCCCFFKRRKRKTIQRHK
UniProt Q86T23: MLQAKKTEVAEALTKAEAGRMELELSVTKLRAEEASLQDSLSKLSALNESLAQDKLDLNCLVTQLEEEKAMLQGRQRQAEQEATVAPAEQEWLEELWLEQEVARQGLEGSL
UniProt Q9UBT7: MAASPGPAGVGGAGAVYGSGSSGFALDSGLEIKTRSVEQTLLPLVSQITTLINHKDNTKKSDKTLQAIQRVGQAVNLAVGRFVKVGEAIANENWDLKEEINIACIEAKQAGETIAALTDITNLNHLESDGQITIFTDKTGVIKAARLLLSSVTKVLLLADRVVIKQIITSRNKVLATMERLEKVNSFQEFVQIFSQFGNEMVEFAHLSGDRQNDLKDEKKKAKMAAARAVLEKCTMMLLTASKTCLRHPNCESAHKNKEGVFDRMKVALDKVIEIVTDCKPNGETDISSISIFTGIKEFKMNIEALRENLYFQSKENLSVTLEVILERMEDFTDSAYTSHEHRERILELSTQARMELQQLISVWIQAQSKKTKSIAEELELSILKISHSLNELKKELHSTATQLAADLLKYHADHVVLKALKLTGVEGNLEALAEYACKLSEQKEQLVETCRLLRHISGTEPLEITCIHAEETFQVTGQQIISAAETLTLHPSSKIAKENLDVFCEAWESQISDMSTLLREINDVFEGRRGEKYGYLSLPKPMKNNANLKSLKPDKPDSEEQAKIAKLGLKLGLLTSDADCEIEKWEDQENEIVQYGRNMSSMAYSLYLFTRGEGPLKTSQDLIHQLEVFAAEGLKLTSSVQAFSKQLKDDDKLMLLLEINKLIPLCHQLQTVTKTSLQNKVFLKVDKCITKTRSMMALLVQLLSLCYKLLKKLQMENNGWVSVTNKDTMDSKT
UniProt Q6GPI1, whole entry, looked up: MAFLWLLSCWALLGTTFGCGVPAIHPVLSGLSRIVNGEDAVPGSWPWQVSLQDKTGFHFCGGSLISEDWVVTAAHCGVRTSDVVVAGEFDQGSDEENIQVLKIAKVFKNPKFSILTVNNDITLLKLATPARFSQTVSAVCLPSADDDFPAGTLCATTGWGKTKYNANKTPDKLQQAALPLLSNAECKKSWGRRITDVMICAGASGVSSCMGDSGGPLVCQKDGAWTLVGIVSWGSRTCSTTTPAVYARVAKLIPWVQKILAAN
UniProt Q8N6G5: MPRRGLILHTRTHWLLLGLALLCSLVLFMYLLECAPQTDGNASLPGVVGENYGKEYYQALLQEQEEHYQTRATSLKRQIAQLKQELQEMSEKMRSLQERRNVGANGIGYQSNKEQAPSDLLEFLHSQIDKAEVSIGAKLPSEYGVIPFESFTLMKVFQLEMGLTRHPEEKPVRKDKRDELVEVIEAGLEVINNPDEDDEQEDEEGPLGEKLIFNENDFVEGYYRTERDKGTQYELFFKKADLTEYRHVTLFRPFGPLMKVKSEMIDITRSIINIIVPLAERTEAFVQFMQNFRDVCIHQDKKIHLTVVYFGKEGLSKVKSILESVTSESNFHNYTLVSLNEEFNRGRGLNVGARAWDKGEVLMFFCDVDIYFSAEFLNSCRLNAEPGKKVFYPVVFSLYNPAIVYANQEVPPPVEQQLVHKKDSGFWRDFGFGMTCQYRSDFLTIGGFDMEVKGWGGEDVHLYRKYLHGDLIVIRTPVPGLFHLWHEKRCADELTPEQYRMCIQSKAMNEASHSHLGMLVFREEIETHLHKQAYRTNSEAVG
UniProt Q9Y2S2: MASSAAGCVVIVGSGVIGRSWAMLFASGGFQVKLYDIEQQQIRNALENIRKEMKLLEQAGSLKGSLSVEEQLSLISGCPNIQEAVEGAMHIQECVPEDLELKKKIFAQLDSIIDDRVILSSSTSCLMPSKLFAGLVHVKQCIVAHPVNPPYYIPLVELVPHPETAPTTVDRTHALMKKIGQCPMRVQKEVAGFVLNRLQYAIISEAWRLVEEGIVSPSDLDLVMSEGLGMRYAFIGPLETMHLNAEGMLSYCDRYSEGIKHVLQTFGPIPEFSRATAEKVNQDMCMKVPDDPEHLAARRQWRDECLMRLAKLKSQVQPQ

The other results are listed elsewhere or left out.

Compound in the first assay: CC1=C(C=C(C=C1)NC(=O)C2=CC(=CC=C2)N(C)C)NC(=O)C3=CC=C(C=C3)O
The assay is described as follows: log2 fold change, soluble protein after heating vs DMSO (PISA); higher = thermal stabilisation; K562 lysate, 10 uM; active = over 0.2 and 3.5 SD of the protein, either way, in both replicates (recomputed). The gist of the method:
(§1)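 To prepare the extract, K562 pellets were dounce-homogenised in PBS pH 7.4 with 1 mM MgCl2, giving crude material at 1 mg/mL protein. This was treated with 10 μM compound for 30 min, then heated in aliquots for 3 min over 48°C-58°C before pooling and addition of NP-40 to 0.5% at 4°C. Centrifugation at 21,000xg for 90 min left soluble protein in the supernatant, which TMTpro 16plex LC-MS/MS quantified with equalised channel sums. Results are log-two fold changes in thermal stability compared with solvent controls, from duplicates.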
CUX1 isoform 2 (UniProt Q13948): the log2 fold change was inactive: 0.043. On the same count and under the same terms, then CSAD isoform 3 (UniProt Q9Y600), with inactive: -0.033.

CSRNP2 (UniProt Q9H175): the log2 fold change is inactive: -0.037. Regarding CTSG (UniProt P08311), the log2 fold change was inactive: -0.043. CTNS isoform 2 (UniProt O60931): the log2 fold change is inactive: -0.292. On to CRISP3 isoform 3 (UniProt P54108), for which the log2 fold change is inactive: 0.24. As for CST1 (UniProt P01037), the log2 fold change is inactive: 0.051.

As to CTDSP1 (UniProt Q9GZU7), the log2 fold change is inactive: 0.096.

Consider CRTC2 (UniProt H0YDQ8), for which the log2 fold change is inactive: 0.128. With CTF1 (UniProt Q16619), the log2 fold change was inactive: -0.209.

Take CSNK1A1 isoform 3 (UniProt P48729): the log2 fold change is inactive: 0.143. With CTSF (UniProt Q9UBX1), the log2 fold change was inactive: 0.012.

Compound in the next assay: CC1=CC=C(C=C1)SC2=C3C=C(SC3=CN=C2)C(=O)N
The description is as above. The method, boiled down: as §1
Turning to CYFIP1, A0A0G2JRV9, the log2 fold change was inactive: 0.012. Regarding CUX1 isoform 2 (UniProt Q13948), the log2 fold change was inactive: -0.086.

For CSNK1G3 isoform 4 (UniProt Q9Y6M4), the log2 fold change is inactive: -0.142. Still for that read-out and setting: then CROCCP2 (UniProt Q86T23), with inactive: -0.285. As to CTNNAL1 (UniProt Q9UBT7), the log2 fold change was inactive: -0.046.

On to CTRB2 (UniProt Q6GPI1), for which the log2 fold change was inactive: 0.046. On to CSNK2A1, A0A2R8Y4D6, for which the log2 fold change is inactive: -0.292. CTF1 (UniProt Q16619): the log2 fold change was inactive: -0.015.

Take CSGALNACT2 (UniProt Q8N6G5): the log2 fold change was inactive: 0.091. Same read-out and setting: then CRYL1 (UniProt Q9Y2S2), with inactive: 0.145.
